Results from US20250387415A1, “COMPOSITIONS OF COPPER COMPLEXES” (University of Lancashire, priority 2022, published 2025).
At least one compound was matched to its structure with a doubt left.

Assay: Hydrated lipid systems (F02): transparency check method for maximum solubility / encapsulation
Assay type: physicochemical

CC(=O)Oc1ccccc1C(=O)[O-].CC(=O)Oc1ccccc1C(=O)[O-].CC(=O)Oc1ccccc1C(=O)[O-].CC(=O)Oc1ccccc1C(=O)[O-].[Cu+2].[Cu+2] [CuASP, Copper (II) Aspirinate]
maximum solubility (solubilization limit) in cubic phase per g of lipid (cubic phase of 0.75 g lipid + 0.5 g water): 106 mg/g of lipid | maximum solubility (solubilization limit) in cubic phase (in 1.25 g cubic phase (0.75 g lipid + 0.5 g water)): about 80 mg
